In article PMC4692422:
No constants are given. Whether binding was seen depends on the method and setting. In cells and extracts the contact can be indirect. Some results given as binding are weak or reduced against the parent protein; the word gives no strength.

Sequences of proteins named here, by UniProt entry; tags and fusion partners are left off. A change or cut given only in a name is not applied to a line headed by its entry. A line that says so, or that is headed by a name, gives the form on record, which may keep a tag or linker.
UniProt P42230: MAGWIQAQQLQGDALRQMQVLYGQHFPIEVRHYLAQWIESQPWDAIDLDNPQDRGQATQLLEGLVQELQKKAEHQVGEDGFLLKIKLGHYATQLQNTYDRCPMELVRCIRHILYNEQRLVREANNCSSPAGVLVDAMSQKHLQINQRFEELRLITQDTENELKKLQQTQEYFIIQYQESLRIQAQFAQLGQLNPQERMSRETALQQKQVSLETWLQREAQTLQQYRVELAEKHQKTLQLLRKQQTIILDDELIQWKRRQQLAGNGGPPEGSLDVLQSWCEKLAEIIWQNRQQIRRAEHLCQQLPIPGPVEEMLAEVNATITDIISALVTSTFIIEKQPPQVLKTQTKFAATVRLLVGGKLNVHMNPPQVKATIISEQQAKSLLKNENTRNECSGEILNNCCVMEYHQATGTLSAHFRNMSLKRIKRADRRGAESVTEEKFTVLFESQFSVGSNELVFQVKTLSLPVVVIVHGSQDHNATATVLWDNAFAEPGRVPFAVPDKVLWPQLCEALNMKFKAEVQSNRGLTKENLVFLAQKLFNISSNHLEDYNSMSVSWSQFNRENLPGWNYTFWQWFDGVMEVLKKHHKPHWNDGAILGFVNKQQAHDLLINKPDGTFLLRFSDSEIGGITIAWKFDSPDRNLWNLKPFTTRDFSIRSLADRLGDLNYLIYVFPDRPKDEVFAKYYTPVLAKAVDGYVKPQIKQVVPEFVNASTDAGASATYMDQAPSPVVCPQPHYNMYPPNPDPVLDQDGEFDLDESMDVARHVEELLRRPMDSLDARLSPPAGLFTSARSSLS
Flag-tagged STAT5 phosphomimic point mutant Y694 (Tyr to Asp) (P42230, form named): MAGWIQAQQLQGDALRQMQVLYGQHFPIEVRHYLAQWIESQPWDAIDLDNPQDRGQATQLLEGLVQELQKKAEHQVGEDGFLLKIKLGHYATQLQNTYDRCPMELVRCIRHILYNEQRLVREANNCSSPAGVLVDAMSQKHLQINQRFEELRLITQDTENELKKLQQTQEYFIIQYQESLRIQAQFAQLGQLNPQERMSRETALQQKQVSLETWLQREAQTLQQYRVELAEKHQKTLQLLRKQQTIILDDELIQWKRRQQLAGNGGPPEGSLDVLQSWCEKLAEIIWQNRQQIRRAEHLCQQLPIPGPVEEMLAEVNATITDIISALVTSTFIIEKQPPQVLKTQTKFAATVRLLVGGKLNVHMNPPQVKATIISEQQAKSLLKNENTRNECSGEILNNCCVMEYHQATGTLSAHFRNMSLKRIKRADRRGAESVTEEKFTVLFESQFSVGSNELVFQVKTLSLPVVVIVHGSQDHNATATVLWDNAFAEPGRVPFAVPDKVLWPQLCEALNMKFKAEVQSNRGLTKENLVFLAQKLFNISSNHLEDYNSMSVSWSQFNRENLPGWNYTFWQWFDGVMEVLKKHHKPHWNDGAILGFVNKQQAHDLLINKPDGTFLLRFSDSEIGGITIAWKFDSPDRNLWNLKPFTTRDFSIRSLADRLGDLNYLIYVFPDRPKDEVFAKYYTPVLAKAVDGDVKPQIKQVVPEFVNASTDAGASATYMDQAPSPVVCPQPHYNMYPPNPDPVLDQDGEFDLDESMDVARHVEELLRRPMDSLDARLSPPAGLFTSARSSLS
Flag-tagged STAT5 phosphomimic point mutant Y694 (Tyr to Glu) (P42230, form named): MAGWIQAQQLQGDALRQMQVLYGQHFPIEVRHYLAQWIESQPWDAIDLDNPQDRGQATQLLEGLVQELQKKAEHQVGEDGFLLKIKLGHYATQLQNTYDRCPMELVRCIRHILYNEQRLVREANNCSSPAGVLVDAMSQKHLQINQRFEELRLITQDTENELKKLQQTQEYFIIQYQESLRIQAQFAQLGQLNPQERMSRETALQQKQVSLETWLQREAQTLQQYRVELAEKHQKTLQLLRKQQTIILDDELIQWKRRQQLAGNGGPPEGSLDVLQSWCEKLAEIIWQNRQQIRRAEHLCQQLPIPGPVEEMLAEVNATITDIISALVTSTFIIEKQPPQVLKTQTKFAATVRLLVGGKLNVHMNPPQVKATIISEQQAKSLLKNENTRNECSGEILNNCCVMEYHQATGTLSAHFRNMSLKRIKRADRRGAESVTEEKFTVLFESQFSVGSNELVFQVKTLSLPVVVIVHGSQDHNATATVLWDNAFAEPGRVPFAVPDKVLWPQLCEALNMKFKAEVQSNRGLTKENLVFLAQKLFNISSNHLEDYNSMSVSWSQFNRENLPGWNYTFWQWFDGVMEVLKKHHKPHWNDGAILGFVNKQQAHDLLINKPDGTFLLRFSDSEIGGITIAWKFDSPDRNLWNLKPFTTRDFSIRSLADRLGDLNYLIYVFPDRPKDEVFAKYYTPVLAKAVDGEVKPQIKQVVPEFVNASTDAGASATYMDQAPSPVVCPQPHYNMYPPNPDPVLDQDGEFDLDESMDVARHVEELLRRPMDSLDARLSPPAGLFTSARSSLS
Flag-tagged STAT5 phosphorylation-defective point mutant Y694 (Tyr to Phe) (P42230, form named): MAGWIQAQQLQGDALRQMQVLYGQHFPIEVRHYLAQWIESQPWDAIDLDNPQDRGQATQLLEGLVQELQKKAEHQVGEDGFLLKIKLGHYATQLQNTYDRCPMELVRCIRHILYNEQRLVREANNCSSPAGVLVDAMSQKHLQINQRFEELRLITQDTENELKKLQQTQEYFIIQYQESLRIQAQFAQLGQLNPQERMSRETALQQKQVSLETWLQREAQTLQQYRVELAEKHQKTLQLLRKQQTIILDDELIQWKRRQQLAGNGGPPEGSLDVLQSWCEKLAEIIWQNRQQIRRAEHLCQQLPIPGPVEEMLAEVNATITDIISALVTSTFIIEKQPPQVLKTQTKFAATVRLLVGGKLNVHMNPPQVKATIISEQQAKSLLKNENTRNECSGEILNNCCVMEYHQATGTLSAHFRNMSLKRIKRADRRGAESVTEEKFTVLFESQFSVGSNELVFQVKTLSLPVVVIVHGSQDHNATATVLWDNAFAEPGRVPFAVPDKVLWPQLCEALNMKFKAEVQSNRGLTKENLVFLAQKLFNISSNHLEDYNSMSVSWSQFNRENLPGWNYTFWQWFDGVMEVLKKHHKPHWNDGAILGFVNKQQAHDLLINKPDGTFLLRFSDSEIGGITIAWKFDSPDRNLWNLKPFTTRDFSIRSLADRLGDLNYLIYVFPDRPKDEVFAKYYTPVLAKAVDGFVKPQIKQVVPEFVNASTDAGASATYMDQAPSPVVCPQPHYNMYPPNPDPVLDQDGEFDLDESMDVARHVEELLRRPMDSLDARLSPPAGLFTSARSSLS

Tests used:
Test in all cases: co-IP; HEK-293T co-transfected with STAT5 and DUSP4 plasmids; 10 ng/ml hIFNbeta and 25 uM pervanadate for 30 m before lysis; SDS-free RIPA buffer (50 mM Tris-HCl, 0.25% sodium deoxycholate, 150 mM NaCl, 0.1% NP-40, 1 mM EDTA); Flag-STAT5 precipitated on Anti-Flag M2 affinity gel at 4°C for 3 h; DUSP4 detected by western blot
[1] = biological target: Flag-tagged WT STAT5 (mouse STAT5a) (mouse) (UniProt P42230)
[2] = biological target: Flag-tagged STAT5 phosphomimic point mutant Y694 (Tyr to Asp) (mouse) (UniProt P42230)
[3] = biological target: Flag-tagged STAT5 phosphomimic point mutant Y694 (Tyr to Glu) (mouse) (UniProt P42230)
[4] = biological target: Flag-tagged STAT5 phosphorylation-defective point mutant Y694 (Tyr to Phe) (mouse) (UniProt P42230)

binding [1]	binding [2]	binding [3]	binding [4]	Binder
binds	–	–	–	WT DUSP4 (mouse dual-specificity phosphatase 4) (enzyme, UniProt Q8BFV3 1-398) MVTMEELREMDCSVLKRLMNRDENGGGGSAGGNGSGSHGALGLLSGGKCLLLDCRPFLAHSAGYIRGSVNVRCNTIVRRRAKGSVSLEQILPAEEEVRARLRSGLYSAVIVYDERSPRAESLREDSTVSLVVQALRRNAERTDICLLKGGYERFSSEYPEFCSKTKALAAIPPPVPPSTNESLDLGCSSCGTPLHDQGGPVEILPFLYLGSAYHAARRDMLDALGITALLNVSSDCPNHFEGHYQYKCIPVEDNHKADISSWFMEAIEYIDAVKDCRGRVLVHCQAGISRSATICLAYLMMKKRVRLEEAFEFVKQRRSIISPNFSFMGQLLQFESQVLTTSCAAEAASPSGPLRERGKATPTPTSQFVFSFPVSVGVHAAPSNLPYLHSPITTSPSC
binds	binds	binds	binds	DUSP4-PD (phosphatase-dead mutant DUSP4, C284S) (enzyme, UniProt Q8BFV3 1-398) MVTMEELREMDCSVLKRLMNRDENGGGGSAGGNGSGSHGALGLLSGGKCLLLDCRPFLAHSAGYIRGSVNVRCNTIVRRRAKGSVSLEQILPAEEEVRARLRSGLYSAVIVYDERSPRAESLREDSTVSLVVQALRRNAERTDICLLKGGYERFSSEYPEFCSKTKALAAIPPPVPPSTNESLDLGCSSCGTPLHDQGGPVEILPFLYLGSAYHAARRDMLDALGITALLNVSSDCPNHFEGHYQYKCIPVEDNHKADISSWFMEAIEYIDAVKDCRGRVLVHSQAGISRSATICLAYLMMKKRVRLEEAFEFVKQRRSIISPNFSFMGQLLQFESQVLTTSCAAEAASPSGPLRERGKATPTPTSQFVFSFPVSVGVHAAPSNLPYLHSPITTSPSC
